Screen size: about 340,000 compounds; about 170 (0.05%) were called active. This list was built around the results that the source calls inconclusive (neither active nor inactive); the mix of calls is not that of the screen. Calls follow the shape of the dose curve; as a rule, active = well fitted inhibition curve with a large enough effect in the signal ratio, with a control signal flat (not every such curve was filed as active); inconclusive = small, poorly fitted or top-dose-only effect, or effect the other way, or a change in a side signal; inactive = flat fitted curve, though single readings scatter; the % refers to the signal ratio. Where the call is inconclusive, the potency comes from a doubtful curve fit.
Assay: qHTS Assay to Find Inhibitors of Chronic Active B-Cell Receptor Signaling;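 as to activity change, negative = inhibition: plate controls were basal doxycycline-induced cells for no effect and cells given 10 µM MG132 for full effect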
Details: ABC-DLBCL IkBa-CBG/CBR reporter, luminescence ratio (green luciferase fused to IkBa over red control in TMD8 lymphoma cells), 4 h; activity change, negative = inhibition: at 46.1 µM (top of the series)
Summary of the method: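 TMD8 ABC-DLBCL cells carrying doxycycline-inducible green luciferase fused to IkappaBalpha plus unfused red luciferase were exposed to compounds (up to 46 uM) for 4 hrs at 37C. Activity came from the overlap-corrected green/red luminescence ratio.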
In the case of `CC(=O)Nc1ccc(S(=O)(=O)N2CCC(=O)Nc3ccccc32)cc1`, the Potency is reported as inconclusive: 0.562 µM [falling, partial curve, poor fit].
In the case of `COc1cccc(Oc2nc(C)nc3c2oc2ccccc23)c1`, the activity change, negative = inhibition is reported as “inactive”.
In the case of `CN(CC(=O)Nc1ccc(N2CCOCC2)cc1)C(=O)c1cc2c(s1)CCCC2`, the activity change, negative = inhibition is reported as inconclusive: 5.12%.
In the case of `Cc1cc(N/N=C/c2ccncc2)nc2ccccc12`, the activity change, negative = inhibition is reported as “inactive”.
In the case of `N=c1c2c(ncn1CCCO)Oc1cc(O)ccc1C2c1ccccc1` (configuration not stated), the Potency is reported as inconclusive: 3.55 µM [falling, full curve].
With `COC(=O)c1c(SCC(=O)NC2CCCCC2)[nH]c2ccccc2c1=O` the activity change, negative = inhibition was “inactive”.
With `C/C(=C\C(=O)c1ccccc1)Nc1cccc(O)c1` the activity change, negative = inhibition was inconclusive: -0.479%.
With `Oc1ccc(Cl)cc1/C=N/c1nc2ccccc2[nH]1` the Potency was inconclusive: 17.8 µM [falling, partial curve].
With `CCN1CCN(Cc2ccc(NC(=O)c3ccc(C)c(NC(=O)c4cc(-c5ccc(Br)cc5)n[nH]4)c3)cc2C(F)(F)F)CC1` the activity change, negative = inhibition was inconclusive: -1.02%.
In the case of `Cc1c(/C=N/NC(=O)CNc2ccccc2)c2ccccn2c1C(=O)c1ccc(Cl)cc1`, the activity change, negative = inhibition is reported as “inactive”.
With `CC(=O)N1CCOc2cc(S(=O)(=O)NCc3ccc(F)cc3)c(C)cc21` the activity change, negative = inhibition was inconclusive: -16.4%.
For `O=C(Nc1ccc2c(c1)CCCN2C(=O)c1cccs1)c1ccccc1`, the activity change, negative = inhibition was inconclusive: 3.08%.
With `O=C(Nc1cccc(Cl)c1)c1ccccc1` the activity change, negative = inhibition was “inactive”.
For `COc1ccccc1NC(=S)NCC1CCCCC1`, the activity change, negative = inhibition was “inactive”.
With `O=C1NN(c2ccc(F)cc2)C(=O)/C1=C\C=C\c1ccco1` the activity change, negative = inhibition was “inactive”.
With `CCOCCCn1c(SCC(=O)Nc2ccc(C(N)=O)cc2)nc2ccccc2c1=O` the activity change, negative = inhibition was “inactive”.
With `O=C(NCc1cccnc1)C1CCC(c2ccc(Cl)cc2)CC1` (configuration not stated) the activity change, negative = inhibition was “inactive”.
For `COC(=O)c1ccc(NC(=S)NCCC2=CCCCC2)cc1`, the Potency was inconclusive: 11.2 µM [falling, partial curve].
For `CCOC(=O)C1(CCOc2ccccc2)CCN(CC2CC2)CC1`, the activity change, negative = inhibition was inconclusive: 0.18%.
For `O=C(c1ccc(Cl)cc1)c1c[nH]c(C(=O)NNc2ccccc2)c1`, the Potency was inconclusive: 35.5 µM [falling, partial curve, poor fit].
In the case of `COc1ccc(C(C#N)N2N=C(C)CC2c2ccccc2)cc1` (configuration not stated), the activity change, negative = inhibition is reported as inconclusive: 0.499%.
For `CCOC(=O)c1c(S(=O)(=O)N2CCCC(C(=O)Nc3ccc(C)cn3)C2)c(C)n(C)c1C` (configuration not stated), the activity change, negative = inhibition was inconclusive: 0.157%.
In the case of `CC1CC(=O)C2=C(C1)Nc1ccccc1SC2c1ccc(F)cc1` (configuration not stated), the activity change, negative = inhibition is reported as inconclusive: 7.35%.
For `Cc1cccc(/C=N/n2c(-c3cc(-c4ccccc4)n[nH]3)n[nH]c2=S)c1`, the activity change, negative = inhibition was “inactive”.
For `O=C(O)CCC1COc2ccccc2O1` (configuration not stated), the Potency was inconclusive: 1.84 µM [rising, full curve, poor fit].
For `O=C1c2ccccc2C(=O)N1c1cccc(-c2csc(Nc3ccc4c(c3)OCO4)n2)c1`, the activity change, negative = inhibition was inconclusive: 12.8%.
For `COc1ccc(S(=O)(=O)CCc2nnc(NC(=O)c3ccc(F)cc3)s2)cc1`, the activity change, negative = inhibition was “inactive”.
In the case of `O=C(NCc1cccnc1)c1nc(-c2ccc(C(F)(F)F)cc2)no1`, the activity change, negative = inhibition is reported as “inactive”.
In the case of `Cc1cc2c(c(=O)n1-c1ccccc1)C1O[C@](c3ccsc3)(Cc3cc(C#N)ccc31)O2`, the activity change, negative = inhibition is reported as inactive: 25.1% [at 9.22 µM].
For `Cc1ccc(CNc2ccc(Cl)cc2[N+](=O)[O-])cc1`, the activity change, negative = inhibition was inconclusive: 1.03%.
In the case of `CCN(CC)c1nc2ccccc2nc1-n1nc(C)cc1C`, the activity change, negative = inhibition is reported as “inactive”.
With `COc1cccc(N2CCN(C(=O)c3ccc(CS(=O)Cc4ccccc4Cl)o3)CC2)c1` (configuration not stated) the activity change, negative = inhibition was “inactive”.
With `Cc1ccc(C2(C)NC(=O)N(CC(=O)N3CCN(S(=O)(=O)c4ccc(Cl)s4)CC3)C2=O)cc1` (configuration not stated) the activity change, negative = inhibition was inconclusive: -8.22%.
For `O=[N+]([O-])c1c(NCCCO)cc(SCc2ccco2)c2nonc12`, the Potency was inconclusive: 29.1 µM [falling, single point].
With `COC(=O)c1ccc(-c2noc(CN(C)CC3CCCCO3)n2)cc1` (configuration not stated) the activity change, negative = inhibition was inconclusive: -8.71%.
For `O=C(O)CCC(=O)Nc1sc2c(c1C(=O)Nc1ccccc1)CCCCC2`, the activity change, negative = inhibition was “inactive”.
With `O=C(N/N=C/C=C/c1ccccc1)c1ccccc1Br` the Potency was inconclusive: 5.01 µM [falling, partial curve].
With `CCC(NC(=O)c1cccc(Cn2cc([N+](=O)[O-])cn2)c1)c1ccc(C(C)C)cc1` (configuration not stated) the Potency was inconclusive: 0.231 µM [rising, full curve, poor fit].
In the case of `O=C(NC(=S)N1CCCCC1CO)c1cccs1` (configuration not stated), the Potency is reported as inconclusive: 29.1 µM [falling, single point].
With `CCOC(=O)C(C)Sc1nc2c([nH]c3ccccc32)c(=O)n1C` (configuration not stated) the Potency was inconclusive: 2.91 µM [rising, full curve, poor fit].
With `COc1ccc(-c2cc(C3CC3)nc3sc(C#N)c(N)c23)cc1` the activity change, negative = inhibition was inconclusive: 4.66%.
For `CCNC(=O)CN(CCc1ccccc1)S(C)(=O)=O`, the activity change, negative = inhibition was inconclusive: -5.76%.
In the case of `O=C(c1ccccc1Cl)N1CCNCC1`, the activity change, negative = inhibition is reported as “inactive”.
In the case of `O=C(NC1CCCCC1)C1CCN(S(=O)(=O)c2cccc3nsnc23)CC1`, the activity change, negative = inhibition is reported as “inactive”.
In the case of `CCCCCN(C(=O)CSc1n[nH]c(-c2ccc(C)cc2)n1)c1c(N)n(CCCC)c(=O)[nH]c1=O`, the activity change, negative = inhibition is reported as inconclusive: -17.9%.
With `CCOCC(O)CNC(=O)c1ccc2nc(Cc3ccc(OC)c(OC)c3)oc2c1` (configuration not stated) the activity change, negative = inhibition was inconclusive: -8.53%.
For `O=C(NC1CC1)C1=C[C@@H](c2coc3ccccc3c2=O)C[C@@H](OCc2ccc(CO)cc2)O1`, the activity change, negative = inhibition was inconclusive: 19%.
In the case of `CCOC(=O)C(=O)N(Nc1ccc(C)cc1)c1ccc(C)cc1`, the activity change, negative = inhibition is reported as inconclusive: 11.9%.
In the case of `CCn1nc(NC(=O)c2ccco2)c2cc3cc(C)ccc3nc21`, the activity change, negative = inhibition is reported as inconclusive: 0.799%.
With `N#Cc1cc2c(nc1SCc1ccccc1)CCCC2` the activity change, negative = inhibition was inconclusive: 5.99%.
With `CCOc1ccccc1N(CC(=O)NC1CCCCC1)S(=O)(=O)c1ccc(C)cc1` the activity change, negative = inhibition was inconclusive: -20.6%.
With `CCc1ccc(-c2cc(C)no2)cc1S(=O)(=O)N1CCOc2ccc(C)cc21` the activity change, negative = inhibition was inconclusive: 1.48%.
For `O=C(/C=C/c1ccccc1)Nc1scc(-c2ccccc2)c1C(=O)O`, the Potency was inconclusive: 35.5 µM [falling, single point].
In the case of `C=CCSc1nc(C)cc2c1C(=O)OC2`, the Potency is reported as inconclusive: 22.4 µM [falling, partial curve].
With `O=C(CCN1CCN(c2ccccc2)CC1)NNC(=O)Cc1ccc(Br)cc1` the activity change, negative = inhibition was inconclusive: -1.72%.
In the case of `Cc1ccc(S(=O)(=O)Nc2nc3ccccc3s2)cc1[N+](=O)[O-]`, the Potency is reported as inconclusive: 12.6 µM [rising, partial curve, poor fit].
In the case of `Cc1nn(C)cc1/C=N\NC(=O)c1ccc2c(c1)c(C)c(C)n2Cc1ccccc1`, the activity change, negative = inhibition is reported as inconclusive: 0.549%.
With `CCN(CC)C(c1ccc(C)cc1)c1nnnn1C1CCCCC1` (configuration not stated) the activity change, negative = inhibition was inconclusive: 1.21%.
In the case of `S=C1Nc2ccccc2Sc2ccc(Cl)cc21`, the activity change, negative = inhibition is reported as inconclusive: 4.51%.
With `Oc1cccc(/C=N/Nc2cccc3cccnc23)c1` the activity change, negative = inhibition was inconclusive: 3.26%.
With `Cc1ccc2cc(NC(=O)c3ccccc3C)ccc2n1` the Potency was inconclusive: 35.5 µM [rising, single point].
In the case of `CCc1ccc(-c2nn(-c3ccccc3)cc2C2SCC(=O)N2Cc2ccco2)cc1` (configuration not stated), the activity change, negative = inhibition is reported as inconclusive: 10.3%.
With `CCOCCCNCc1cccc(OCc2ccc(F)cc2)c1` the activity change, negative = inhibition was inconclusive: -11.1%.
In the case of `CC(=O)c1cccc(NC(=S)NC(=O)Cc2ccccc2)c1`, the activity change, negative = inhibition is reported as “inactive”.
For `COc1ccc(-c2cn3cccnc3n2)cc1NC(=O)c1ccc(Br)o1`, the activity change, negative = inhibition was inconclusive: 4.63%.
With `CC(C)CC(NC(=O)OC(C)(C)C)c1cn([C@@H](CCC(=O)OC(C)(C)C)C(=O)N2CCN(C(=O)OC(C)(C)C)CC2)nn1` (some centres not stated) the activity change, negative = inhibition was “inactive”.
For `CCNc1c(C(=O)O)ccc2c1C(=O)c1ccccc1C2=O`, the Potency was inconclusive: 0.0651 µM [rising, full curve].
In the case of `COc1ccccc1OCC(=O)Nc1c2c(nn1-c1ccc(F)cc1)CS(=O)(=O)C2`, the activity change, negative = inhibition is reported as inconclusive: 1.35%.
For `CCOCCCNC(=S)N1CCCN(c2nc3cc(C)c(C)cc3cc2C#N)CC1`, the activity change, negative = inhibition was inconclusive: -25.7%.
In the case of `COc1ccc(Nc2nc(N)nc(SCc3nnc(C)s3)n2)cc1`, the Potency is reported as inconclusive: 35.5 µM [falling, partial curve, poor fit].
In the case of `COc1cc(OC)c(OC)cc1CNC(=O)c1cc(=O)c2ccccc2o1`, the activity change, negative = inhibition is reported as inconclusive: 8%.
For `c1ccc2c(CSc3ncnc4nc[nH]c34)cccc2c1`, the activity change, negative = inhibition was inconclusive: -18.7%.
For `CCSc1cc(C)nc2c(-c3ccccc3)cnn12`, the Potency was inconclusive: 22.4 µM [falling, partial curve].
In the case of `O=C(COC(=O)c1cc(S(=O)(=O)N2CCOCC2)c(Cl)cc1Cl)c1ccc[nH]1`, the activity change, negative = inhibition is reported as inconclusive: -0.0396%.
For `CCOC(=O)/C(=N\Nc1ccc(Cl)cc1)c1csc(Nc2ccccc2)n1`, the Potency was inconclusive: 5.8 µM [rising, partial curve, poor fit].
In the case of `CC1C(=O)N2CCCc3cc(S(=O)(=O)NCc4ccccc4Cl)cc1c32` (configuration not stated), the activity change, negative = inhibition is reported as “inactive”.
In the case of `O=C(C1CCN(S(=O)(=O)c2ccccc2)CC1)N1CCCCCC1`, the activity change, negative = inhibition is reported as inconclusive: -4.73%.
For `C#C[C@]1(O)CC[C@H]2[C@@H]3CCc4cc(O)ccc4[C@H]3CC[C@@]21C`, the Potency was inconclusive: 16.4 µM [falling, single point].
For `Cc1ccc(NCc2nnc(SCC(=O)Nc3cccc(O)c3)n2CC2CCCO2)c(C)c1` (configuration not stated), the activity change, negative = inhibition was inconclusive: 1.09%.
With `CCCn1c2c(c(O)c(C(=O)Nc3nccs3)c1=O)CCCC2` the activity change, negative = inhibition was “inactive”.
For `COc1ccc(C2CC(=O)N(C)c3ccccc3S2)cc1OC` (configuration not stated), the Potency was inconclusive: 15.8 µM [cytotoxic, partial curve].
With `COc1ccc(CCCC(=O)Nc2ccccc2F)cc1` the activity change, negative = inhibition was inconclusive: -11.4%.

Source: PubChem BioAssay AID493014 (National Center for Advancing Translational Sciences (NCATS), 2011)
Potency is read from the fitted curve at half-maximal effect.
